The other results are listed elsewhere or left out.
Assays:
Experiment in all cases: glycan array binding signal (z-score within array); higher = stronger binding
Conditions in all cases: glycan notation: IUPAC condensed, linker removed
Fuc(a1-2)Gal = molecular target: Fuc(a1-2)Gal
In short: (§1)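 Negative Z-scores can be read as non-binding. The Z-score is calculated within each array and then averaged across arrays of one protein sequence at different concentrations or buffers and across linkers. Arrays, 3228 in all, were curated from the Consortium for Functional Glycomics database and kept only where the protein sequence was available.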

Fuc(a1-2)Gal(b1-3)GalNAc = molecular target: Fuc(a1-2)Gal(b1-3)GalNAc
In short: as §1

[1] = molecular target: Fuc(a1-2)Gal(b1-3)GalNAc(a1-3)[Fuc(a1-2)]Gal(b1-4)Glc
In short: as §1

[2] = molecular target: Fuc(a1-2)Gal(b1-3)GalNAc(a1-3)[Fuc(a1-2)]Gal(b1-4)GlcNAc
In short: as §1

[3] = molecular target: Fuc(a1-2)Gal(b1-3)GalNAc(b1-3)Gal
In short: as §1

[4] = molecular target: Fuc(a1-2)Gal(b1-3)GalNAc(b1-3)Gal(a1-4)Gal(b1-4)Glc
In short: as §1

[5] = molecular target: Fuc(a1-2)Gal(b1-3)GalNAc(b1-4)[Neu5Ac(a2-3)]Gal(b1-4)Glc
In short: as §1

Fuc(a1-2)Gal(b1-3)GlcNAc = molecular target: Fuc(a1-2)Gal(b1-3)GlcNAc
In short: as §1

[6] = molecular target: Fuc(a1-2)Gal(b1-3)GlcNAc(b1-2)Man(a1-3)[Fuc(a1-2)Gal(b1-3)GlcNAc(b1-2)Man(a1-6)]Man(b1-4)GlcNAc(b1-4)GlcNAc
In short: as §1

[7] = molecular target: Fuc(a1-2)Gal(b1-3)GlcNAc(b1-2)Man(a1-3)[Fuc(a1-2)Gal(b1-3)GlcNAc(b1-2)Man(a1-6)]Man(b1-4)GlcNAc(b1-4)[Fuc(a1-6)]GlcNAc
In short: as §1

[8] = molecular target: Fuc(a1-2)Gal(b1-3)GlcNAc(b1-3)Gal(b1-4)Glc
In short: as §1

[9] = molecular target: Fuc(a1-2)Gal(b1-3)GlcNAc(b1-3)GalNAc
In short: as §1

[10] = molecular target: Fuc(a1-2)Gal(b1-3)GlcNAc(b1-3)[Fuc(a1-2)Gal(b1-3)GlcNAc(b1-6)]GalNAc
In short: as §1

[11] = molecular target: Fuc(a1-2)Gal(b1-3)GlcNAc(b1-3)[Gal(b1-4)GlcNAc(b1-6)]Gal(b1-4)Glc
In short: as §1

[12] = molecular target: Fuc(a1-2)Gal(b1-3)GlcNAc(b1-3)[Neu5Ac(a2-6)Gal(b1-4)GlcNAc(b1-6)]Gal(b1-4)Glc
In short: as §1

[13] = molecular target: Fuc(a1-2)Gal(b1-3)GlcNAc6S
In short: as §1

[14] = molecular target: Fuc(a1-2)Gal(b1-3)[Fuc(a1-4)]GlcNAc
In short: as §1

[15] = molecular target: Fuc(a1-2)Gal(b1-3)[Fuc(a1-4)]GlcNAc(b1-2)Man(a1-3)[Fuc(a1-2)Gal(b1-3)[Fuc(a1-4)]GlcNAc(b1-2)Man(a1-3)]Man(b1-4)GlcNAc(b1-4)GlcNAc
In short: as §1

[16] = molecular target: Fuc(a1-2)Gal(b1-3)[Fuc(a1-4)]GlcNAc(b1-2)Man(a1-3)[Fuc(a1-2)Gal(b1-3)[Fuc(a1-4)]GlcNAc(b1-2)Man(a1-6)]Man(b1-4)GlcNAc(b1-4)[Fuc(a1-6)]GlcNAc(b1-4)[Fuc(a1-6)]GlcNAc
In short: as §1

[17] = molecular target: Fuc(a1-2)Gal(b1-3)[Fuc(a1-4)]GlcNAc(b1-3)[Fuc(a1-3)[Gal(b1-4)]GlcNAc(b1-6)]Gal(b1-4)Glc
In short: as §1

[18] = molecular target: Fuc(a1-2)Gal(b1-3)[Fuc(a1-4)]GlcNAc(b1-3)[Gal(b1-4)GlcNAc(b1-6)]Gal(b1-4)Glc
In short: as §1

Fuc(a1-2)Gal(b1-4)Glc = molecular target: Fuc(a1-2)Gal(b1-4)Glc
In short: as §1

Fuc(a1-2)Gal(b1-4)Glc6S = molecular target: Fuc(a1-2)Gal(b1-4)Glc6S
In short: as §1

Fuc(a1-2)Gal(b1-4)GlcNAc = molecular target: Fuc(a1-2)Gal(b1-4)GlcNAc
In short: as §1

[19] = molecular target: Fuc(a1-2)Gal(b1-4)GlcNAc(b1-2)Man
In short: as §1

[20] = molecular target: Fuc(a1-2)Gal(b1-4)GlcNAc(b1-2)Man(a1-3)[Fuc(a1-2)Gal(b1-4)GlcNAc(b1-2)Man(a1-6)]Man(b1-4)GlcNAc(b1-4)GlcNAc
In short: as §1

[21] = molecular target: Fuc(a1-2)Gal(b1-4)GlcNAc(b1-2)Man(a1-3)[Fuc(a1-2)Gal(b1-4)GlcNAc(b1-2)Man(a1-6)]Man(b1-4)GlcNAc(b1-4)[Fuc(a1-6)]GlcNAc
In short: as §1

[22] = molecular target: Fuc(a1-2)Gal(b1-4)GlcNAc(b1-2)[Fuc(a1-2)Gal(b1-4)GlcNAc(b1-4)]Man(a1-3)[Fuc(a1-2)Gal(b1-4)GlcNAc(b1-2)Man(a1-6)]Man(b1-4)GlcNAc(b1-4)GlcNAc
In short: as §1

[23] = molecular target: Fuc(a1-2)Gal(b1-4)GlcNAc(b1-3)Gal(b1-4)GlcNAc
In short: as §1

[24] = molecular target: Fuc(a1-2)Gal(b1-4)GlcNAc(b1-3)Gal(b1-4)GlcNAc(b1-2)Man(a1-3)[Fuc(a1-2)Gal(b1-4)GlcNAc(b1-3)Gal(b1-4)GlcNAc(b1-2)Man(a1-6)]Man(b1-4)GlcNAc(b1-4)GlcNAc
In short: as §1

[25] = molecular target: Fuc(a1-2)Gal(b1-4)GlcNAc(b1-3)Gal(b1-4)GlcNAc(b1-3)Gal(b1-4)GlcNAc
In short: as §1

[26] = molecular target: Fuc(a1-2)Gal(b1-4)GlcNAc(b1-3)GalNAc
In short: as §1

[27] = molecular target: Fuc(a1-2)Gal(b1-4)GlcNAc(b1-3)[Fuc(a1-2)Gal(b1-4)GlcNAc(b1-6)]GalNAc
In short: as §1

[28] = molecular target: Fuc(a1-2)Gal(b1-4)GlcNAc(b1-3)[Fuc(a1-3)[Gal(b1-4)]GlcNAc(b1-6)]Gal(b1-4)Glc
In short: as §1

[29] = molecular target: Fuc(a1-2)Gal(b1-4)GlcNAc(b1-6)GalNAc
In short: as §1

[30] = molecular target: Fuc(a1-2)Gal(b1-4)GlcNAc6S
In short: as §1

[31] = molecular target: Fuc(a1-2)Gal(b1-4)[Fuc(a1-3)]GlcNAc
In short: as §1

[32] = molecular target: Fuc(a1-2)Gal(b1-4)[Fuc(a1-3)]GlcNAc(b1-2)Man(a1-3)[Fuc(a1-2)Gal(b1-4)[Fuc(a1-3)]GlcNAc(b1-2)Man(a1-6)]Man(b1-4)GlcNAc(b1-4)[Fuc(a1-6)]GlcNAc
In short: as §1

[33] = molecular target: Fuc(a1-2)Gal(b1-4)[Fuc(a1-3)]GlcNAc(b1-2)[Fuc(a1-2)Gal(b1-4)[Fuc(a1-3)]GlcNAc(b1-4)]Man(a1-3)[Fuc(a1-2)Gal(b1-4)[Fuc(a1-3)]GlcNAc(b1-2)Man(a1-6)]Man(b1-4)GlcNAc(b1-4)GlcNAc
In short: as §1

[34] = molecular target: Fuc(a1-2)Gal(b1-4)[Fuc(a1-3)]GlcNAc(b1-3)Gal(b1-4)[Fuc(a1-3)]GlcNAc
In short: as §1

[35] = molecular target: Fuc(a1-2)Gal(b1-4)[Fuc(a1-3)]GlcNAc(b1-3)Gal(b1-4)[Fuc(a1-3)]GlcNAc(b1-3)Gal(b1-4)[Fuc(a1-3)]GlcNAc
In short: as §1

[36] = molecular target: Fuc(a1-2)Gal(b1-4)[Fuc(a1-3)]GlcNAc(b1-3)GalNAc
In short: as §1

[37] = molecular target: Fuc(a1-2)Gal(b1-4)[Fuc(a1-3)]GlcNAc(b1-3)[Neu5Ac(a2-6)Gal(b1-4)GlcNAc(b1-6)]Gal(b1-4)Glc
In short: as §1

[38] = molecular target: Fuc(a1-2)Gal3S(b1-4)GlcNAc
In short: as §1

[39] = molecular target: Fuc(a1-2)Gal6S(b1-3)GlcNAc
In short: as §1

B1: FimA-N2 (Actinomyces oris) (protein)
chain: MHHHHHHSSGVDLGTENLYFQSNAWIYDVNVYPKNEAIDVDKTIQAQKLNGYGVGSLIKFPVESTAPTLDAKSFYKYFQLKDTLDERLSEVTATDVSLEGTPLQPTDYKVETKQQTVTVTFTAEGLKKIKAAPGKKVSAVFQGKVTKAGNGAITNRAQVISDTLYAEQPPTPETPPTDPENPPTSDEVISRWGDLSIKKVDTHQQGQTKA
Fuc(a1-2)Gal
  glycan array binding signal (z-score): -0.037
Fuc(a1-2)Gal(b1-3)GalNAc
  glycan array binding signal (z-score): -0.76
[1]
  glycan array binding signal (z-score): -0.362
[2]
  glycan array binding signal (z-score): -0.692
[3]
  glycan array binding signal (z-score): -0.503
[4]
  glycan array binding signal (z-score): 1.56
[5]
  glycan array binding signal (z-score): 0.973
Fuc(a1-2)Gal(b1-3)GlcNAc
  glycan array binding signal (z-score): -1.13
[6]
  glycan array binding signal (z-score): 1.73
[7]
  glycan array binding signal (z-score): -0.779
[8]
  glycan array binding signal (z-score): -0.985
[9]
  glycan array binding signal (z-score): -0.377
[10]
  glycan array binding signal (z-score): -0.008
[11]
  glycan array binding signal (z-score): -0.109
[12]
  glycan array binding signal (z-score): 0.331
[13]
  glycan array binding signal (z-score): 1.45
[14]
  glycan array binding signal (z-score): 0.542
[15]
  glycan array binding signal (z-score): 0.03
[16]
  glycan array binding signal (z-score): -1.11
[17]
  glycan array binding signal (z-score): -0.967
[18]
  glycan array binding signal (z-score): 1.08
Fuc(a1-2)Gal(b1-4)Glc
  glycan array binding signal (z-score): 0.723
Fuc(a1-2)Gal(b1-4)Glc6S
  glycan array binding signal (z-score): 1.22
Fuc(a1-2)Gal(b1-4)GlcNAc
  glycan array binding signal (z-score): 0.416
[19]
  glycan array binding signal (z-score): 1.52
[20]
  glycan array binding signal (z-score): -0.34
[21]
  glycan array binding signal (z-score): 2.43
[22]
  glycan array binding signal (z-score): 1.85
[23]
  glycan array binding signal (z-score): -0.882
[24]
  glycan array binding signal (z-score): -0.614
[25]
  glycan array binding signal (z-score): 1.62
[26]
  glycan array binding signal (z-score): -1.06
[27]
  glycan array binding signal (z-score): -0.363
[28]
  glycan array binding signal (z-score): 0.295
[29]
  glycan array binding signal (z-score): 1.08
[30]
  glycan array binding signal (z-score): 0.295
[31]
  glycan array binding signal (z-score): 0.22
[32]
  glycan array binding signal (z-score): -1.43
[33]
  glycan array binding signal (z-score): -0.365
[34]
  glycan array binding signal (z-score): -1.32
[35]
  glycan array binding signal (z-score): -0.065
[36]
  glycan array binding signal (z-score): 0.987
[37]
  glycan array binding signal (z-score): -0.348
[38]
  glycan array binding signal (z-score): -0.817
[39]
  glycan array binding signal (z-score): 1.35

Source: the supplement of paper PMC8728848
